According to PubChem BioAssay AID504444 (National Center for Advancing Translational Sciences (NCATS), 2011):
Screen size: about 360,000 compounds; about 7,500 (2.1%) were called active. The shares of active, inactive and inconclusive entries below differ from those in the screen. Calls follow the shape of the dose curve; as a rule, active = well fitted inhibition curve with a large enough effect; inconclusive = small, poorly fitted or top-dose-only effect, or effect the other way; inactive = flat fitted curve, though single readings scatter. Potencies of inconclusive entries are doubtful fits and often do not repeat.
Potency is read from the fitted curve at half-maximal effect.

Assay: Nrf2 qHTS screen for inhibitors; also: nearly all actives have a fitted effect of over 60% in size
Conditions: A549 ARE-Fluc reporter, luciferase luminescence, 18-24 h; series mostly up to 46 µM
Procedure, shortened: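 Reporter: ARE-Fluc in A549. Exposure: 18-24 h, 37 °C, 5% CO2, 5% FBS OPTI-MEM. Readouts: fluorescent cytotoxicity (CellTiter-Fluor), then luminescent Nrf2 signal after BugLite.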
In the case of CCc1ccc(C2=NN(C(=O)OC)C(O)(C(F)(F)F)C2)cc1 (stereo unspecified), the Potency is reported as inconclusive: 0.366 µM [activator, full curve]. For Cc1ccc(S(=O)(=O)NC(Cc2ccccc2)C(=O)NN)cc1 (stereo unspecified), the Potency was “inactive”. In the case of COc1ccc(CC(=O)N/N=C(\C)c2ccccn2)cc1, the Potency is reported as active: 14.6 µM. For O=C(c1ccccc1)c1cc(-c2ccccc2)on1, the Potency was inconclusive: 2.91 µM [activator, partial curve]. For O=C(/C=C/c1cccc([N+](=O)[O-])c1)OC1CCCCC1=O (stereo unspecified), the Potency was “inactive”. For Cn1c(=O)oc2cc(S(=O)(=O)CCC(=O)N3CCN(c4cccc(Cl)c4)CC3)ccc21, the Potency was “inactive”. In the case of CCN(CC)S(=O)(=O)c1cccc(NC(=O)COC(=O)C2CC3C=CC2C3)c1 (stereo unspecified), the Potency is reported as inconclusive: 23.1 µM [falling, partial curve, poor fit]. In the case of Cc1nc2c(ccc3nc(NC(=O)C4CC4)sc32)s1, the Potency is reported as inconclusive: 14.6 µM [activator, partial curve]. With CC(C)(C)Sc1ccccc1S(=O)(=O)C(C)(C)C the Potency was inconclusive: 6.51 µM [falling, single point]. For CCOC(=O)c1c(NC(C)=O)sc2c1CCC(C=NCCCN(CC)CC)=C2Sc1ccccc1, the Potency was inconclusive: 18.4 µM [falling, single point]. For COC(=O)[C@@H](NCc1cccc(CN([C@H](C(=O)OC)C(C)C)S(C)(=O)=O)c1)C(C)C, the Potency was inconclusive: 3.26 µM [falling, partial curve, poor fit]. In the case of CC(C)(C)OC(=O)N(CCc1ccccc1)Cc1ccc(OCc2cccc(NC(=O)c3ccccc3)c2)cc1, the Potency is reported as “inactive”. For COC(=O)C(C)Sc1ccc2nnc(CCNS(=O)(=O)c3ccc(C)cc3)n2n1 (stereo unspecified), the Potency was inconclusive: 16.4 µM [activator, single point]. For CCOc1ccccc1N1CCN(C(=O)c2ccc3c(c2)OCO3)CC1, the Potency was “inactive”. For CC(=O)Nc1ccc(N(C(=O)c2ccco2)C(C(=O)NC2CCCC2)c2ccncc2)cc1 (stereo unspecified), the Potency was “inactive”. With COc1ccccc1CN(C)CC(=O)Nc1ccc(Cl)cc1F the Potency was inconclusive: 4.11 µM [activator, full curve, poor fit]. For COc1ccccc1-n1cnnc1SCC(=O)Nc1ccccc1, the Potency was inconclusive: 25.9 µM [activator, single point]. For CCCCCn1c(=O)[nH]c2cc(C(=O)Nc3ccc(OC)cc3)ccc2c1=O, the Potency was “inactive”. With O=C(CSc1ccc(Cl)cc1)N1CCN(c2ccc(Cl)cc2[N+](=O)[O-])CC1 the Potency was inconclusive: 29.1 µM [falling, single point]. For CN(CC(=O)Nc1cccc(F)c1)C(=O)/C=C/c1cc(Br)ccc1OC(F)F, the Potency was inconclusive: 20.6 µM [falling, single point]. With COc1ccc(-c2cc(-c3ccccc3)n[nH]2)c(O)c1 the Potency was inconclusive: 29.1 µM [activator, single point]. For Cc1ccc(CCNC(=O)c2ccc3nc(N4CCC(C)CC4)sc3c2)cc1, the Potency was inconclusive: 1.03 µM [activator, full curve]. In the case of COCc1nnc(NC(=O)C2CCN(C(=O)c3ccccc3)CC2)s1, the Potency is reported as “inactive”. In the case of N=C(N)SCc1cn(-c2ccccc2)nc1-c1ccc(Br)cc1, the Potency is reported as “inactive”. For CCOc1ccc(NC(=O)CSc2nnc(NC(=O)C3CC3)s2)cc1, the Potency was inconclusive: 16.4 µM [falling, partial curve, poor fit]. With O=c1c2ccccc2nnn1COc1ccc(F)cc1Cl the Potency was inconclusive: 23.1 µM [activator, partial curve, poor fit]. For CSc1ccccc1C(=O)Nc1ccc2c(c1)OCO2, the Potency was inconclusive: 29.1 µM [activator, single point]. In the case of Cc1cc(NC(=O)c2cccc(S(=O)(=O)N3CC(c4ccccc4)CC3=O)c2)no1 (stereo unspecified), the Potency is reported as inconclusive: 29.1 µM [falling, partial curve, poor fit]. In the case of CCOC(=O)C1(CC2CCCCO2)CCN(C(=O)Nc2ccc(SC)cc2)CC1 (stereo unspecified), the Potency is reported as inconclusive: 29.1 µM [activator, single point]. For Cc1ccc(NC(=O)c2c(C(F)(F)F)nn(C)c2SCc2ccc(Cl)cc2)cc1C, the Potency was inconclusive: 29.1 µM [falling, single point]. For CCCCc1ccc(N/C(N)=N/c2nc(C)cc(C)n2)cc1, the Potency was inconclusive: 29.1 µM [falling, single point]. In the case of C/C(N)=C(/C#N)C(=O)COC(=O)c1ccccc1O, the Potency is reported as inconclusive: 29.1 µM [activator, single point]. With c1coc(CNc2ncnc3ccccc23)c1 the Potency was inconclusive: 10.3 µM [falling, partial curve]. For Clc1ccc(-c2cn3ccccc3n2)cc1, the Potency was inconclusive: 1.84 µM [activator, full curve]. With Cc1nnc(SCC(=O)c2cc(C)n(C3CC3)c2C)s1 the Potency was inconclusive: 0.184 µM [activator, full curve, poor fit]. In the case of COc1ccccc1C1CC(=O)NC(C)=C1C(=O)OC1CCCCCC1 (stereo unspecified), the Potency is reported as inconclusive: 8.2 µM [falling, partial curve]. With CCCN(CC(=O)Nc1ccccc1OC)C(=O)c1ccc(S(=O)(=O)Nc2ccccc2OC)cc1 the Potency was inconclusive: 29.1 µM [falling, single point]. For O=C(c1cnc2ccc3ccccc3c2c1)c1cc(F)ccc1O, the Potency was “inactive”. For Nc1cccc2c1C(=O)N(C(=O)/C=C/c1cccc(F)c1)C2=O, the Potency was inconclusive: 29.1 µM [falling, single point]. In the case of COc1ccc(Nc2nc3ccc(OC)cc3s2)cc1, the Potency is reported as inconclusive: 13 µM [activator, partial curve, poor fit]. For Cc1c(CCC(=O)NCCCC(=O)O)c(=O)oc2cc3oc4c(c3cc12)CCCC4, the Potency was inconclusive: 4.61 µM [falling, partial curve]. With COc1ccc(S(=O)(=O)N2CCN(C(=O)CCOc3ccccc3)CC2)cc1OC the Potency was inconclusive: 29.1 µM [falling, single point]. With COc1ccc(C(=O)C2CCCN(S(=O)(=O)c3ccccc3F)C2)c(C)c1 (stereo unspecified) the Potency was inconclusive: 18.4 µM [falling, single point]. With CCc1ccc(OCc2nnc(-c3ccccc3Br)o2)cc1 the Potency was “inactive”. With COc1cc(Cl)c(C)cc1Nc1nc2ccccc2c2nnc(C)n12 the Potency was inconclusive: 16.4 µM [activator, partial curve, poor fit]. With Cn1c(SCC(=O)Nc2cccc(F)c2)nnc1-c1cc2ccccc2o1 the Potency was inconclusive: 6.51 µM [activator, single point]. For Cc1ccc(-n2nnc3c(=O)n(Cc4cc(C)ccc4C)cnc32)cc1, the Potency was inconclusive: 11.6 µM [falling, partial curve, poor fit]. For COc1ccc(C2CC(=O)N3CN(C4CCCCC4)CSC3=C2C#N)c(OC)c1 (stereo unspecified), the Potency was “inactive”. For O=C(Nc1sc2c(c1C(=O)O)CCC2)c1cccs1, the Potency was inconclusive: 32.6 µM [falling, single point]. In the case of COc1ccc(/C=N\n2nnc3ccccc32)cc1, the Potency is reported as inconclusive: 0.461 µM [activator, full curve, poor fit]. With CCC(Oc1ccccc1-c1nnc(-c2ccccc2)o1)C(=O)Nc1ccc(C(C)=O)cc1 (stereo unspecified) the Potency was “inactive”. In the case of Cc1ccc(NC(=O)c2ccc(C(C)(C)C)cc2)cc1[N+](=O)[O-], the Potency is reported as inconclusive: 13 µM [activator, single point]. In the case of COC(=O)c1cccc(C(=O)Nc2ccc(C)cc2)n1, the Potency is reported as inconclusive: 0.231 µM [activator, partial curve, poor fit]. In the case of COc1cc(/C=C2\SC(=S)N(CC(=O)NC3=NCCS3)C2=O)cc(OC)c1OC, the Potency is reported as “inactive”. For Cc1cccc(CCNC(=O)C2CCN(S(=O)(=O)N3CCOCC3)CC2)c1, the Potency was inconclusive: 14.6 µM [falling, partial curve, poor fit]. With O=C(NCc1ccccc1)c1cccc(COc2ccc3c(c2)CCC3)c1 the Potency was inconclusive: 0.13 µM [activator, full curve, poor fit]. For O=C(NCCc1ccc(C(F)(F)F)cc1)c1ccc(Cl)nc1, the Potency was inconclusive: 20.6 µM [falling, partial curve, poor fit]. With COc1ccc(NC(=O)c2cccc(N3C(=O)c4cccc([N+](=O)[O-])c4C3=O)c2)cc1 the Potency was inconclusive: 11.6 µM [falling, partial curve, poor fit]. With COC(=O)c1cc(C(=O)c2c(C)cc3ccccn23)cc([N+](=O)[O-])c1 the Potency was inconclusive: 18.4 µM [activator, partial curve]. For O=C(Nc1cccc(NC(=O)C2CC3CCCC(C2)C3=O)n1)C1CC2CCCC(C1)C2=O (stereo unspecified), the Potency was inconclusive: 16.4 µM [falling, partial curve]. For CCc1ccc(-n2c(=O)c3c4c(sc3n(Cc3ccccc3C#N)c2=O)CCC4)cc1, the Potency was “inactive”. With CCc1cc2ccc(C)cc2nc1SCC(=O)N1CCN(C(=O)c2ccco2)CC1 the Potency was inconclusive: 23.1 µM [falling, partial curve, poor fit]. With CCN(CC)S(=O)(=O)c1ccc(-c2nnc(SCc3nnc(-c4ccccc4)o3)o2)cc1 the Potency was inconclusive: 18.4 µM [falling, single point]. With COc1ccc(-c2ccc(-c3noc(-c4ccccc4OC)n3)c(OC)n2)cc1 the Potency was inconclusive: 20.6 µM [falling, partial curve, poor fit]. With CC(C)n1nc(C(=O)Nc2nnc(C3CC3)s2)c2ccccc2c1=O the Potency was inconclusive: 4.61 µM [falling, partial curve]. With Cc1cc(F)ccc1S(=O)(=O)Nc1ncnc2sc3c(c12)CCC3 the Potency was inconclusive: 20.6 µM [falling, single point].
